Laboratory results: ChEMBL document CHEMBL4316593 (Eur J Med Chem, 2019)
This continues a long series; more values of the same kind are listed elsewhere.

Experiments:
Assay type in all cases: cell-based
Conditions in all cases: U-87MG ATCC
[1] = Inhibition of RTK/PI3K/AKT/mTOR signaling in human U87 cells assessed as down regulation of MED12L gene expression at cytotoxic IC50 measured after 48 hrs relative to control
[2] = Inhibition of RTK/PI3K/AKT/mTOR signaling in human U87 cells assessed as down regulation of CDC25A gene expression at cytotoxic IC50 measured after 48 hrs relative to control
[3] = Inhibition of RTK/PI3K/AKT/mTOR signaling in human U87 cells assessed as down regulation of HAT1 gene expression at cytotoxic IC50 measured after 48 hrs relative to control
[4] = Inhibition of RTK/PI3K/AKT/mTOR signaling in human U87 cells assessed as down regulation of ANKRD18A gene expression at cytotoxic IC50 measured after 48 hrs relative to control
[5] = Inhibition of RTK/PI3K/AKT/mTOR signaling in human U87 cells assessed as down regulation of XRCC3 gene expression at cytotoxic IC50 measured after 48 hrs relative to control
[6] = Inhibition of RTK/PI3K/AKT/mTOR signaling in human U87 cells assessed as down regulation of YKT6 gene expression at cytotoxic IC50 measured after 48 hrs relative to control
[7] = Inhibition of RTK/PI3K/AKT/mTOR signaling in human U87 cells assessed as down regulation of OSER1 gene expression at cytotoxic IC50 measured after 48 hrs relative to control
[8] = Inhibition of RTK/PI3K/AKT/mTOR signaling in human U87 cells assessed as down regulation of PKNOX1 gene expression at cytotoxic IC50 measured after 48 hrs relative to control
[9] = Inhibition of RTK/PI3K/AKT/mTOR signaling in human U87 cells assessed as down regulation of SLC6A17 gene expression at cytotoxic IC50 measured after 48 hrs relative to control
[10] = Inhibition of RTK/PI3K/AKT/mTOR signaling in human U87 cells assessed as down regulation of ILKAP gene expression at cytotoxic IC50 measured after 48 hrs relative to control
[11] = Inhibition of RTK/PI3K/AKT/mTOR signaling in human U87 cells assessed as down regulation of NDUFA6 gene expression at cytotoxic IC50 measured after 48 hrs relative to control
[12] = Inhibition of RTK/PI3K/AKT/mTOR signaling in human U87 cells assessed as down regulation of HNRNPH3 gene expression at cytotoxic IC50 measured after 48 hrs relative to control
[13] = Inhibition of RTK/PI3K/AKT/mTOR signaling in human U87 cells assessed as down regulation of UHMK1 gene expression at cytotoxic IC50 measured after 48 hrs relative to control
[14] = Inhibition of RTK/PI3K/AKT/mTOR signaling in human U87 cells assessed as down regulation of BIRC2 gene expression at cytotoxic IC50 measured after 48 hrs relative to control
[15] = Inhibition of RTK/PI3K/AKT/mTOR signaling in human U87 cells assessed as down regulation of RAB14 gene expression at cytotoxic IC50 measured after 48 hrs relative to control
[16] = Inhibition of RTK/PI3K/AKT/mTOR signaling in human U87 cells assessed as up regulation of RPE65 gene expression at cytotoxic IC50 measured after 48 hrs relative to control
[17] = Inhibition of RTK/PI3K/AKT/mTOR signaling in human U87 cells assessed as up regulation of RASSF2 gene expression at cytotoxic IC50 measured after 48 hrs relative to control
[18] = Inhibition of RTK/PI3K/AKT/mTOR signaling in human U87 cells assessed as up regulation of MSLN gene expression at cytotoxic IC50 measured after 48 hrs relative to control
[19] = Inhibition of RTK/PI3K/AKT/mTOR signaling in human U87 cells assessed as up regulation of HMGA2 gene expression at cytotoxic IC50 measured after 48 hrs relative to control
[20] = Inhibition of RTK/PI3K/AKT/mTOR signaling in human U87 cells assessed as up regulation of SEMA4B gene expression at cytotoxic IC50 measured after 48 hrs relative to control
[21] = Inhibition of RTK/PI3K/AKT/mTOR signaling in human U87 cells assessed as up regulation of NR2F1 antisense RNA 1 gene expression at cytotoxic IC50 measured after 48 hrs relative to control
[22] = Inhibition of RTK/PI3K/AKT/mTOR signaling in human U87 cells assessed as up regulation of S100 calcium binding protein A6 gene expression at cytotoxic IC50 measured after 48 hrs relative to control
[23] = Inhibition of RTK/PI3K/AKT/mTOR signaling in human U87 cells assessed as up regulation of interleukin 1 receptor accessory protein gene expression at cytotoxic IC50 measured after 48 hrs relative to control
[24] = Inhibition of RTK/PI3K/AKT/mTOR signaling in human U87 cells assessed as up regulation of SH2 domain containing 4A gene expression at cytotoxic IC50 measured after 48 hrs relative to control
[25] = Inhibition of RTK/PI3K/AKT/mTOR signaling in human U87 cells assessed as up regulation of solute carrier family 7 member 6 gene expression at cytotoxic IC50 measured after 48 hrs relative to control
[26] = Inhibition of RTK/PI3K/AKT/mTOR signaling in human U87 cells assessed as up regulation of Ras and Rab interactor like gene expression at cytotoxic IC50 measured after 48 hrs relative to control
[27] = Inhibition of RTK/PI3K/AKT/mTOR signaling in human U87 cells assessed as up regulation of notchless homolog 1 gene expression at cytotoxic IC50 measured after 48 hrs relative to control
[28] = Inhibition of RTK/PI3K/AKT/mTOR signaling in human U87 cells assessed as up regulation of LMBR1 domain containing 1 gene expression at cytotoxic IC50 measured after 48 hrs relative to control
[29] = Inhibition of RTK/PI3K/AKT/mTOR signaling in human U87 cells assessed as up regulation of glucosidase alpha, acid gene expression at cytotoxic IC50 measured after 48 hrs relative to control
[30] = Inhibition of RTK/PI3K/AKT/mTOR signaling in human U87 cells assessed as up regulation of thioredoxin like 4A gene expression at cytotoxic IC50 measured after 48 hrs relative to control
[31] = Inhibition of RTK/PI3K/AKT/mTOR signaling in human U87 cells assessed as up regulation of Ras related GTP binding D gene expression at cytotoxic IC50 measured after 48 hrs relative to control
[32] = Inhibition of RTK/PI3K/AKT/mTOR signaling in human U87 cells assessed as up regulation of IMPDH2 gene expression at cytotoxic IC50 measured after 48 hrs relative to control

CC(=O)C(=NNc1ccccc1C#N)C(C)=O
log2FC [1]: -1.93
log2FC [2]: -1.87
log2FC [3]: -1.75
log2FC [4]: -1.35
log2FC [5]: -1.33
log2FC [6]: -0.905
log2FC [7]: -0.876
log2FC [8]: -0.768
log2FC [9]: -0.751
log2FC [10]: -0.629
log2FC [11]: -0.605
log2FC [12]: -0.581
log2FC [13]: -0.481
log2FC [14]: -0.448
log2FC [15]: -0.428
log2FC [16]: 3.35
log2FC [17]: 1.94
log2FC [18]: 1.78
log2FC [19]: 1.64
log2FC [20]: 1.63
log2FC [21]: 1.56
log2FC [22]: 1.54
log2FC [23]: 1.2
log2FC [24]: 1.11
log2FC [25]: 1.02
log2FC [26]: 1
log2FC [27]: 0.915
log2FC [28]: 0.799
log2FC [29]: 0.742
log2FC [30]: 0.724
log2FC [31]: 0.647
log2FC [32]: 0.37
